{"source": "patent US10781325B2", "about": "“Curable composition, curable ink, accommodating container, image forming device, image forming method, cured matter, and acrylamide compound” (Ricoh Company, Ltd., priority 2016, dated 2020)"}
{"experiment": "Evaluation on odor of curable compound", "parameters": "key: A: no odor or not uncomfortable if any; B: uncomfortable with peculiar odor; C: Very uncomfortable with peculiar odor", "conditions": "about 100 mg in closed 50 mL glass bin, about 30 minutes at room temperature"}
{"smiles": "C=CC(=O)N(CC)CC", "note": "[Comparative Example 1a, N,N-diethylacrylamide, reference compound]", "Odor (no odor)": "C"}
{"smiles": "C=CC(=O)N(C)CCOC", "note": "[Comparative Example 2a, reference compound]", "Odor (no odor)": "A"}
{"smiles": "C=CC(=O)N(CC(=O)OCC)CC(=O)OCC", "note": "[Comparative Example 3a, reference compound]", "Odor (no odor)": "A"}
{"smiles": "C=CC(=O)N(C)CCOC(C)=O", "note": "[Example 1a]", "Odor (no odor)": "A"}
{"smiles": "C=CC(=O)N(C)CCOC(=O)C(C)C", "note": "[Example 2a]", "Odor (no odor)": "A"}
{"smiles": "C=CC(=O)N(CCOC(C)=O)C(C)(C)C", "note": "[Example 3a]", "Odor (no odor)": "A"}
{"smiles": "C=CC(=O)N(C)CC(=O)OC", "note": "[Example 4a]", "Odor (no odor)": "A"}
{"smiles": "C=CC(=O)N(C)CC(=O)OCC", "note": "[Example 5a]", "Odor (no odor)": "A"}
{"smiles": "C=CC(=O)N(C)CC(=O)OCCCC", "note": "[Example 6a]", "Odor (no odor)": "A"}
{"smiles": "C=CC(=O)N(C)CC(=O)OC(C)C", "note": "[Example 7a]", "Odor (no odor)": "A"}
{"smiles": "C=CC(=O)N(CCC)CC(=O)OCC", "note": "[Example 8a]", "Odor (no odor)": "A"}
{"smiles": "C=CC(=O)N(CC(=O)OC)C(C)C", "note": "[Example 9a]", "Odor (no odor)": "A"}
{"smiles": "C=CC(=O)N(CC(=O)OC(C)C)C(C)C", "note": "[Example 10a]", "Odor (no odor)": "A"}
{"smiles": "C=CC(=O)N(CCCCCC)CC(=O)OC", "note": "[Example 11a]", "Odor (no odor)": "A"}
{"smiles": "C=CC(=O)N(CCCCCC)CC(=O)OCCCC", "note": "[Example 12a]", "Odor (no odor)": "A"}
{"smiles": "C=CC(=O)N(C)C(C)C(=O)OC", "note": "(stereo not drawn) [Example 13a]", "Odor (no odor)": "A"}
{"smiles": "C=CC(=O)N(C)C(C)C(=O)OCC", "note": "(stereo not drawn) [Example 14a]", "Odor (no odor)": "A"}
{"smiles": "C=CC(=O)N(C)C(C)C(=O)OC(C)C", "note": "(stereo not drawn) [Example 15a]", "Odor (no odor)": "A"}
